Data as given in article PMC8519931.
No constants are given. Whether binding was seen depends on the method and setting. Binding seen in cells or lysates may run through a third protein. Binding can be weak; no strength is given. Where a sequence is shown, tags or fusion partners need not be part of it.

What was measured:
FLAG-ULK1 (full-length) = biological target: T1, FLAG-ULK1 (full-length) (UniProt O70405); assay: co-IP; FLAG-ULK1 forms and HA-BNIP3 co-expressed in HEK-293 T cells; FLAG-tagged proteins immunoprecipitated on anti-FLAG M2 magnetic beads (NP-40 IP lysis buffer), 1 h at 4 °C; BNIP3 detected by blot
T1 sequence: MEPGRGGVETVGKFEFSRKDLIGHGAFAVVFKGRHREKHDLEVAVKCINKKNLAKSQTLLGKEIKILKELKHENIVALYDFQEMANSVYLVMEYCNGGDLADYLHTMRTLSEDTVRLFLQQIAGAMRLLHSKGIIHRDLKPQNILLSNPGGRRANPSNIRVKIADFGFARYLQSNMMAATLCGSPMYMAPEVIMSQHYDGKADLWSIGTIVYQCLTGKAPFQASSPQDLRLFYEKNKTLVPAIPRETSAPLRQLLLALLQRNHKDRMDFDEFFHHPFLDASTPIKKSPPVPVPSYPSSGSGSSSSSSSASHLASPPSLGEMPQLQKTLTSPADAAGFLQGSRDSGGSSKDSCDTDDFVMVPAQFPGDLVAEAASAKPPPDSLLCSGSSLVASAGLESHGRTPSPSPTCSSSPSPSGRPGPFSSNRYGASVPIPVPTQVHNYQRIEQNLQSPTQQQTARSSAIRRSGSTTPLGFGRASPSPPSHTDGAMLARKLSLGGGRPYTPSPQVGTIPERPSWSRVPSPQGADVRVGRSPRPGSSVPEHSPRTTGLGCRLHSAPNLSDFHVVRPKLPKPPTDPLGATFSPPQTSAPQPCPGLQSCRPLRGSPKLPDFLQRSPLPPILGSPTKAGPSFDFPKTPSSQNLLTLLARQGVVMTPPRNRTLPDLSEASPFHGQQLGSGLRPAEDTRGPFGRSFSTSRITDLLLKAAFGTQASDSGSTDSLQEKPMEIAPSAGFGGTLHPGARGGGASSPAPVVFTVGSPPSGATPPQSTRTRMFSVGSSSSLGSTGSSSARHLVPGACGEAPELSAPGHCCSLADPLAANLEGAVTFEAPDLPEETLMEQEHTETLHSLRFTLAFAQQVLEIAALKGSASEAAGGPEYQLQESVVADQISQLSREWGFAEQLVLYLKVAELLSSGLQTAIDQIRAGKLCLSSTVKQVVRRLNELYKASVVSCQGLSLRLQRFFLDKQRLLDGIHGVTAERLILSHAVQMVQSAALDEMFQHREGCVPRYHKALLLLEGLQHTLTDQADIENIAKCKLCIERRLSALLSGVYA

FLAG-ULK1 D1038-1051 = biological target: T2, FLAG-ULK1 D1038-1051 (UniProt O70405); assay: as above
T2 sequence: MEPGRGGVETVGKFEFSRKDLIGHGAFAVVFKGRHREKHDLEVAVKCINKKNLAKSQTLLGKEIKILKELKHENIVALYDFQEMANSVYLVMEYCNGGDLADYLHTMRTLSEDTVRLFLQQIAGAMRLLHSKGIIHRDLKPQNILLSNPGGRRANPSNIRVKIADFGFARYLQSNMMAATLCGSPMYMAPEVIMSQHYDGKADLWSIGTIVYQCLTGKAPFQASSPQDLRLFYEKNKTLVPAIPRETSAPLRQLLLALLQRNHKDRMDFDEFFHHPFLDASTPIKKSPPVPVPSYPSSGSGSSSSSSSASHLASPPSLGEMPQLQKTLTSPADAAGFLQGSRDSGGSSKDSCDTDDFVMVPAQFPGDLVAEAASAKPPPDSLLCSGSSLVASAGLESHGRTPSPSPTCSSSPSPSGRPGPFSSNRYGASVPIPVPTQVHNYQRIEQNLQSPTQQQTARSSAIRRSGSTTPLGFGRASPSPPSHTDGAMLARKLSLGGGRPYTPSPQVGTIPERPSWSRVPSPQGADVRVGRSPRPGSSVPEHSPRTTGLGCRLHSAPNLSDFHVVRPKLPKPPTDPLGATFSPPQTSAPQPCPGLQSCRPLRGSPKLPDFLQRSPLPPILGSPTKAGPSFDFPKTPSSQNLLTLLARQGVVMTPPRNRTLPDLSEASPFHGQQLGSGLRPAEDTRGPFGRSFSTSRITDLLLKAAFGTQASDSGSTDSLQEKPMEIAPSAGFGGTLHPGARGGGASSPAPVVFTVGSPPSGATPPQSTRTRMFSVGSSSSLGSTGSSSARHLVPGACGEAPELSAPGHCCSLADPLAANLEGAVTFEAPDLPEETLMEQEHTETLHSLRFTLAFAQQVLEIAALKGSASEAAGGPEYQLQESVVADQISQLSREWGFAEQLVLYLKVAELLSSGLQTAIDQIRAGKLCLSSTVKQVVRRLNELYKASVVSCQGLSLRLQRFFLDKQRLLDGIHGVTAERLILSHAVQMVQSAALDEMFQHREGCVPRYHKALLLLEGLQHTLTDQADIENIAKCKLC

binding (FLAG-ULK1 (full-length)): binds | binding (FLAG-ULK1 D1038-1051): binds
Substance: HA-BNIP3 (WT)
